Measurements published in patent US6355416B1, “Assay for the measurement of DNA synthesis rates” (The George Washington University, priority 1997, dated 2002).

Tested on: HEP G2 cells
[1] = 33% labeled glycine, after four days of incubation, HEP G2 DNA
[2] = growth experiment, continuous labeling with 3.3% 1-13C-glycine over five days, ± SE of fitted parameter
[3] = wash out over nine days after one-day pulse of 9% enriched glycine, Day 0 not used

Compound: NC[13C](=O)O [1-^13C-glycine]
- dA enrichment δ13C [1]: +375 %‰
- dG enrichment δ13C [1]: +321 %‰
- selectivity of label incorporation into DNA bases (HEP G2 DNA): selectively incorporated into purines and not into pyrimidines
- doubling time for the HEP G2 cells using dG kinetics [2]: 2.2 ± 1.2 days
- doubling time for the HEP G2 cells using the kinetics of dA enrichment [2]: 2.3 ± 0.4 days
- δ13C value of dT (over five days of labeling with 3.3% 1-13C-glycine, mean±SD, N=7): −15.8 %‰
- doubling time from wash out of label, dA [3]: 2.6 ± 0.3 days
- doubling time from wash out of label, dG [3]: 2.4 ± 0.1 days
